The list shows a part of the results. At the low end of the ranking, values are background and their order means little.
tested on: c-MYC + MAX + histone octamer; test: Pioneer-seq (competitive nucleosome EMSA with sequencing); conditions: 10 mM Tris-Cl pH 7.5, 50 mM NaCl, 1 mM DTT, 0.25 mg/ml BSA, 2 mM MgCl2, 0.025% Nonidet P-40, 5% glycerol; 28 nM nucleosome library; 10 min on ice then 30 min …; high values mean tight binding; double strand, one strand shown

| Sequence | binding signal (log2 relative supershift) |
| --- | --- |
| GATGGACCCTATACGCGGCTCACACACCCATCCTAACATTGTCAAATGTGTCACACACCCACCTTACCATTGTCATCTATCCCACCATTGTCAAGTGTGTCATGCACCCATCCTACCATTGTCACCCATCATACCATTGTCAAGCAACTGTTTAACAATGAAAAGATTTATAAGATGGAAATAGATTATCAGATGGATTTAAGGCCTTGATGCCAGTCGGATAGTGTTCC | -0.716 |
| GATGGACCCTATACGCGGCGCTGCCACATCCATTCATTTATGTGATCCAAAGAGGTGGAGGCAGAGGCAGTCACAAGCCTGGACTTGAGTCAGGCAGGCCTGGGCTGGAACTTGGATTAGCAGACCACAGCCAAGCACTTCACTCATCTCTAAATCTGGAATTGTAGAAGTCTTTCTCCCATTTTATATGTGCTTGCAGGATTCCTTAAGTGCCAGTCGGATAGTGTTCC | -0.0925 |
| GATGGACCCTATACGCGGCTTAGATAAACAAAATCTGGAGTATCTGAAGGGTGTGTAAGGCAGAAGTCATGTGAGGTCTGCACACAGCACACTGCTACCTACAGTGTTGGGGGAGTGGCATTGAGCACCATTATCATGCAAGGTGGAGGTGGGTGCCAATAATCACCACTATCATGCAAGGCTAGGGTGGGTGAGGGCAGAAGCCACTCTTGCCAGTCGGATAGTGTTCC | -0.0639 |
| GATGGACCCTATACGCGGCTAGCCCAACTATTTAACTAAAGGAACTTTGTAATATCTGGACTCAGAAACTGAGATAAATGCCATAACCAATCATCCAACCGGAGACTGAGGTACATGTAATCAGGTTCAAAAGTGACTCTAAAGGTACTTGCCTGGCAGCATGACAAAGTGGCATATTATTACACTCCTTAAACACTTTGTGAGAAGCAGTGCCAGTCGGATAGTGTTCC | -0.0312 |
| GATGGACCCTATACGCGGCTACTCACATTTGACTAATTGCCCACCCACTCCAGCATTAGAGATGTTATTAGTATGCAGATTTGTGGTAATCCCTGGATGGGTGAGGCTTCCTAGATCTCCCTTTCTCACAGGCTCCCCCTCCTGCTATCTGCCTACTCTAACAGAAATGTTTTCTATCTTAACTGTGTCAATGTCAGTATCTTGATTGTGTGCCAGTCGGATAGTGTTCC | -0.111 |
